Measurements as given in article PMC10143966, “The Replicative DnaE Polymerase of Bacillus subtilis Recruits the Glycolytic Pyruvate Kinase (PykA) When Bound to Primed DNA Templates” (Life, 2023).

Tested on: DnaE polymerase + PykA PEPut domain
Assay: SPR
Conditions: PEPut titrated onto DnaE (35 nM) on DNA, no PEPut recruitment to DnaE-DNA (DnaE itself binds), 25 mM MgCl2; SPR (Biacore T200, SA chip): 25 mM NaCl, 25 mM MgCl2, 150 mM Tris-HCl pH 7.5, 1 mM DTT, 25 °C; recombinant protein; protein details: His-MBP removed by TEV; label: 5' biotin on 110 mer (strand 1)

Sequence: CACACACACACACACACACACACACACACACACACACACACACACACACACACACACACCCCCTTTAAAAAAAAAAAAAAAAGCCAAAAGCAGTGCCAAGCTTGCATGCC / AGGGGGTGTGTGTGTGTGTGTGTGTGTGTG [primed probe, 30 mer on 5'-biotinylated 110 mer]
- binding result: no binding

The exact form of at least one protein or probe is not confirmed. Negatives hold for the conditions tested.
